These are yes or no findings as the source states them, for the method shown. Binding seen in cells or lysates may run through a third protein. Some binding calls cover weakened binding; strength is not graded here. For some of these results: Tags and fused reporters may be left off the sequences shown.

Amino acid sequences for entries named in this document (tags omitted). A change or cut given only in a name is not applied to a line headed by its entry.
UniProt Q02248: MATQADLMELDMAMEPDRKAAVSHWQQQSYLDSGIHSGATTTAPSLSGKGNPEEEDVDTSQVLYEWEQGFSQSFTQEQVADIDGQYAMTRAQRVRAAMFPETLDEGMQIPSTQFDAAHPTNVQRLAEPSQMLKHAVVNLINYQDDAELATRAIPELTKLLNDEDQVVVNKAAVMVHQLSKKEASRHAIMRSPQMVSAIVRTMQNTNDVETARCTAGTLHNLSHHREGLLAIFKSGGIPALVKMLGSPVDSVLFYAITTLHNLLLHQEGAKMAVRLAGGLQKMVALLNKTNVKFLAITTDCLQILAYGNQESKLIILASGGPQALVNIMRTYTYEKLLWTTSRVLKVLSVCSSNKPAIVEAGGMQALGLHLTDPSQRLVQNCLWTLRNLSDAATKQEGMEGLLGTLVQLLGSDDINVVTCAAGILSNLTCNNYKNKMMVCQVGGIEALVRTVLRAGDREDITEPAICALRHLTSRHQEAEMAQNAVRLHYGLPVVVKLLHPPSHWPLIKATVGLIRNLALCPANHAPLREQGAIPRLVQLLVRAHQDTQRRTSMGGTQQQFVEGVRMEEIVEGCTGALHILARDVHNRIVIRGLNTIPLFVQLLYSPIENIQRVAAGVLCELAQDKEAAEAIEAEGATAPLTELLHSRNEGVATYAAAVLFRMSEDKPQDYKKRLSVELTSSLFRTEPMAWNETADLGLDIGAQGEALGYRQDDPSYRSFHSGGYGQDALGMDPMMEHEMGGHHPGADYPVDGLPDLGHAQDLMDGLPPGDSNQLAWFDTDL
UniProt O15169: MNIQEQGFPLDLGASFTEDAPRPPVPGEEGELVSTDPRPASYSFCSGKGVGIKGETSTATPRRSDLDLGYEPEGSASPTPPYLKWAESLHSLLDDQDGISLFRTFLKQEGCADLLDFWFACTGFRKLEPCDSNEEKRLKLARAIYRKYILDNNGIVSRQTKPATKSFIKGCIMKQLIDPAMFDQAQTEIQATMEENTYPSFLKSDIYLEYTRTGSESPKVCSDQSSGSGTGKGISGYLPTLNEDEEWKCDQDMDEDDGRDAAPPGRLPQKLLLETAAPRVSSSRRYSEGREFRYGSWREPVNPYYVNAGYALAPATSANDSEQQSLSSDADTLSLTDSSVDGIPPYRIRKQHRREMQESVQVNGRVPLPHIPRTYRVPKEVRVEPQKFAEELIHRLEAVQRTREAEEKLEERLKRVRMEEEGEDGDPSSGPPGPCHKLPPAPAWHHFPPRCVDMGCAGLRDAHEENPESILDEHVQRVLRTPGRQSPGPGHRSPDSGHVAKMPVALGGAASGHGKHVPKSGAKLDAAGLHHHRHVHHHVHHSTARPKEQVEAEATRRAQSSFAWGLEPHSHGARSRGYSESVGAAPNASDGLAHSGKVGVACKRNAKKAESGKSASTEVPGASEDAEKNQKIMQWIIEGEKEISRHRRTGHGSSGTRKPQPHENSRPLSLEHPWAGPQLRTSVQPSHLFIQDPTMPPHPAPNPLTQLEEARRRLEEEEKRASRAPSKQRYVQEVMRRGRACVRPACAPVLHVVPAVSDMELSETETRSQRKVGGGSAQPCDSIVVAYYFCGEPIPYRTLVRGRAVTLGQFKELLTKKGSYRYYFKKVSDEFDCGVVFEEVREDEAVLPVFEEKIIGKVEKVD

The results in this text go back to PMC7293280.

The target in assay [1] is T1, ADNP (in HEK293T cells, partner of the β-catenin fragments) (UniProt Q9Z103).
T1 sequence: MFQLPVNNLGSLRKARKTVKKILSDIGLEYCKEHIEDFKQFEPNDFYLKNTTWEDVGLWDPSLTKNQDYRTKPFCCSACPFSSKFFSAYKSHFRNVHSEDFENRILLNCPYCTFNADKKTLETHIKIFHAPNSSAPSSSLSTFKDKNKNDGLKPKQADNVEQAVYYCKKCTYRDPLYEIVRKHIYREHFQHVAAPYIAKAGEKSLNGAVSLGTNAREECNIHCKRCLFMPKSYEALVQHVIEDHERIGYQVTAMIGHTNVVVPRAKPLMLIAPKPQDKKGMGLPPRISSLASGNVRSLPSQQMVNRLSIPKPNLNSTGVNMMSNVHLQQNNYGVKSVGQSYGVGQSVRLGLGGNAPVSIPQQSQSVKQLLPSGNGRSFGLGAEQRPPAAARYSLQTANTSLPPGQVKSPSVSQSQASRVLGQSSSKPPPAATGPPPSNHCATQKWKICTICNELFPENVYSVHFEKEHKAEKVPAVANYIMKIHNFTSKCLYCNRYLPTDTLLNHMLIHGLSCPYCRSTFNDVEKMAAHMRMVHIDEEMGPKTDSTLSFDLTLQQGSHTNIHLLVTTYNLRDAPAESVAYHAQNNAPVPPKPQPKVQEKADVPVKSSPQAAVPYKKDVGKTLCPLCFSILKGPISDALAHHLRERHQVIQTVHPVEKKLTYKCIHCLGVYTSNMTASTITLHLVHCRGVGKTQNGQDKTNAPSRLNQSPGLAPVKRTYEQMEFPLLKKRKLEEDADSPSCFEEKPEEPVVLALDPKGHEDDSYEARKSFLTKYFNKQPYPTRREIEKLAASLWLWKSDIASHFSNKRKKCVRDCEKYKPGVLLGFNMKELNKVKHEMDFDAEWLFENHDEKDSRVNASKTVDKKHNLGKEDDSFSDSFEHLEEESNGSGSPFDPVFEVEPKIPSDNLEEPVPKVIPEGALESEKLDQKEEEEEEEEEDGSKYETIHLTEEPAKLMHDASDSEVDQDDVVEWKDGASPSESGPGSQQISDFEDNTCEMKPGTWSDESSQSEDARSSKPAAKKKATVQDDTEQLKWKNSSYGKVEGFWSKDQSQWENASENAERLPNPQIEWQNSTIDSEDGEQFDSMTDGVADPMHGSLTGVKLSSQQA
The assay can be described thus: co-IP; plasmids co-transfected into HEK293T cells; lysates, Dynabeads Protein G with anti-FLAG, anti-HA or anti-MYC antibody, overnight 4 °C, washes PBS 0.1% Tween.

For the next assay, the target named is T2, FLAG-ADNP-NAP (mouse) (UniProt Q9Z103).
T2 sequence: NAPVSIPQ
Described as above.

In assay [2] the target is T3, FLAG-ADNP (1–685), in vitro synthesized (mouse) (UniProt Q9Z103).
T3 sequence: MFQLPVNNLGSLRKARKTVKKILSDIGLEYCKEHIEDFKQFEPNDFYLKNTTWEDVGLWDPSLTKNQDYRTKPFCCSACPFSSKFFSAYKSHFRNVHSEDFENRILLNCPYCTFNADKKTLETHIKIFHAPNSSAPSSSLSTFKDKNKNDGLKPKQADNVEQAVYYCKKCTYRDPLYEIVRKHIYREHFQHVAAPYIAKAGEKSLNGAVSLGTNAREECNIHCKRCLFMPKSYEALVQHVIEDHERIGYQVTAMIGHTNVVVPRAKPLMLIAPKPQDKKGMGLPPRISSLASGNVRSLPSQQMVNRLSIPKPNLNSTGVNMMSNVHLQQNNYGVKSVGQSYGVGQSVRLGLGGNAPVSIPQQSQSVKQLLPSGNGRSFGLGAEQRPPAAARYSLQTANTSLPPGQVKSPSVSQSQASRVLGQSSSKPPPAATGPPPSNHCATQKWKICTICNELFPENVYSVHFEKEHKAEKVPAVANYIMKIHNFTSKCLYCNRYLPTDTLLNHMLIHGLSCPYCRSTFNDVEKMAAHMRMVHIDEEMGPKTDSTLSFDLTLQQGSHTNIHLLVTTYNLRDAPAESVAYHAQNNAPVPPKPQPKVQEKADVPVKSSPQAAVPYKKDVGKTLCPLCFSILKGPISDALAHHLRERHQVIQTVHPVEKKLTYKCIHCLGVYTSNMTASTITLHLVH
In words: co-IP; both proteins synthesized in rabbit reticulocyte lysate (TNT), 5–10 μl of each mixed in 300 μl TEN buffer, 30 min room temperature; Dynabeads protein G with anti-FLAG or anti-HA.

A further assay has as its target HA-β-catenin (UniProt Q02248). In words: co-IP; competitive protein-binding assay: increasing dose of FLAG-ADNP plasmid co-transfected with MYC-AXIN1 (or APC) and HA-β-catenin into HEK293T; lysates pulled down by HA antibody, WB.

Take “FLAG-β-catenin (151–666) (from UniProt Q02248 151-666) (domain or fragment)”: the binding entry in assay [1] was “binds”.

With “HA-β-catenin (from UniProt Q02248 1-781)”, in the assay with FLAG-ADNP-NAP (mouse), the binding entry was “binds”.

Turning to “HA-β-catenin, in vitro synthesized (from UniProt Q02248 1-781)”, the binding result in assay [2] is “binds”.

In the case of MYC-AXIN1 (from UniProt O15169 1-862), the binding entry with HA-β-catenin was “binds”.
